Measurements as given in the supplement of paper PMC8728848.
The other results are listed elsewhere or left out.

Tests used:
Experiment in all cases: glycan array binding signal (z-score within array); higher = stronger binding
Conditions in all cases: glycan notation: IUPAC condensed, linker removed
[1] = molecular target: Fuc(a1-2)Gal
Summary of the method: (§1)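 Columns mapping to the same glycan were averaged after glycan names were converted to IUPAC-condensed notation. The data come from 3228 arrays in the Consortium for Functional Glycomics database, limited to those with an available protein sequence. Binding is reported as a within-array Z-score averaged across arrays of one protein sequence and across linkers.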

[2] = molecular target: Fuc(a1-2)Gal(b1-3)GalNAc
Summary of the method: as §1

[3] = molecular target: Fuc(a1-2)Gal(b1-3)GalNAc(a1-3)[Fuc(a1-2)]Gal(b1-4)Glc
Summary of the method: as §1

[4] = molecular target: Fuc(a1-2)Gal(b1-3)GalNAc(a1-3)[Fuc(a1-2)]Gal(b1-4)GlcNAc
Summary of the method: as §1

[5] = molecular target: Fuc(a1-2)Gal(b1-3)GalNAc(b1-3)Gal
Summary of the method: as §1

[6] = molecular target: Fuc(a1-2)Gal(b1-3)GalNAc(b1-3)Gal(a1-4)Gal(b1-4)Glc
Summary of the method: as §1

[7] = molecular target: Fuc(a1-2)Gal(b1-3)GalNAc(b1-4)[Neu5Ac(a2-3)]Gal(b1-4)Glc
Summary of the method: as §1

[8] = molecular target: Fuc(a1-2)Gal(b1-3)GlcNAc
Summary of the method: as §1

[9] = molecular target: Fuc(a1-2)Gal(b1-3)GlcNAc(b1-2)Man(a1-3)[Fuc(a1-2)Gal(b1-3)GlcNAc(b1-2)Man(a1-6)]Man(b1-4)GlcNAc(b1-4)GlcNAc
Summary of the method: as §1

[10] = molecular target: Fuc(a1-2)Gal(b1-3)GlcNAc(b1-2)Man(a1-3)[Fuc(a1-2)Gal(b1-3)GlcNAc(b1-2)Man(a1-6)]Man(b1-4)GlcNAc(b1-4)[Fuc(a1-6)]GlcNAc
Summary of the method: as §1

[11] = molecular target: Fuc(a1-2)Gal(b1-3)GlcNAc(b1-3)Gal(b1-4)Glc
Summary of the method: as §1

[12] = molecular target: Fuc(a1-2)Gal(b1-3)GlcNAc(b1-3)GalNAc
Summary of the method: as §1

[13] = molecular target: Fuc(a1-2)Gal(b1-3)GlcNAc(b1-3)[Fuc(a1-2)Gal(b1-3)GlcNAc(b1-6)]GalNAc
Summary of the method: as §1

[14] = molecular target: Fuc(a1-2)Gal(b1-3)GlcNAc(b1-3)[Gal(b1-4)GlcNAc(b1-6)]Gal(b1-4)Glc
Summary of the method: as §1

[15] = molecular target: Fuc(a1-2)Gal(b1-3)GlcNAc(b1-3)[Neu5Ac(a2-6)Gal(b1-4)GlcNAc(b1-6)]Gal(b1-4)Glc
Summary of the method: as §1

[16] = molecular target: Fuc(a1-2)Gal(b1-3)GlcNAc6S
Summary of the method: as §1

[17] = molecular target: Fuc(a1-2)Gal(b1-3)[Fuc(a1-4)]GlcNAc
Summary of the method: as §1

[18] = molecular target: Fuc(a1-2)Gal(b1-3)[Fuc(a1-4)]GlcNAc(b1-2)Man(a1-3)[Fuc(a1-2)Gal(b1-3)[Fuc(a1-4)]GlcNAc(b1-2)Man(a1-3)]Man(b1-4)GlcNAc(b1-4)GlcNAc
Summary of the method: as §1

[19] = molecular target: Fuc(a1-2)Gal(b1-3)[Fuc(a1-4)]GlcNAc(b1-2)Man(a1-3)[Fuc(a1-2)Gal(b1-3)[Fuc(a1-4)]GlcNAc(b1-2)Man(a1-6)]Man(b1-4)GlcNAc(b1-4)[Fuc(a1-6)]GlcNAc(b1-4)[Fuc(a1-6)]GlcNAc
Summary of the method: as §1

[20] = molecular target: Fuc(a1-2)Gal(b1-3)[Fuc(a1-4)]GlcNAc(b1-3)[Fuc(a1-3)[Gal(b1-4)]GlcNAc(b1-6)]Gal(b1-4)Glc
Summary of the method: as §1

[21] = molecular target: Fuc(a1-2)Gal(b1-3)[Fuc(a1-4)]GlcNAc(b1-3)[Gal(b1-4)GlcNAc(b1-6)]Gal(b1-4)Glc
Summary of the method: as §1

[22] = molecular target: Fuc(a1-2)Gal(b1-4)Glc
Summary of the method: as §1

[23] = molecular target: Fuc(a1-2)Gal(b1-4)Glc6S
Summary of the method: as §1

[24] = molecular target: Fuc(a1-2)Gal(b1-4)GlcNAc
Summary of the method: as §1

[25] = molecular target: Fuc(a1-2)Gal(b1-4)GlcNAc(b1-2)Man
Summary of the method: as §1

[26] = molecular target: Fuc(a1-2)Gal(b1-4)GlcNAc(b1-2)Man(a1-3)[Fuc(a1-2)Gal(b1-4)GlcNAc(b1-2)Man(a1-6)]Man(b1-4)GlcNAc(b1-4)GlcNAc
Summary of the method: as §1

[27] = molecular target: Fuc(a1-2)Gal(b1-4)GlcNAc(b1-2)Man(a1-3)[Fuc(a1-2)Gal(b1-4)GlcNAc(b1-2)Man(a1-6)]Man(b1-4)GlcNAc(b1-4)[Fuc(a1-6)]GlcNAc
Summary of the method: as §1

[28] = molecular target: Fuc(a1-2)Gal(b1-4)GlcNAc(b1-2)[Fuc(a1-2)Gal(b1-4)GlcNAc(b1-4)]Man(a1-3)[Fuc(a1-2)Gal(b1-4)GlcNAc(b1-2)Man(a1-6)]Man(b1-4)GlcNAc(b1-4)GlcNAc
Summary of the method: as §1

[29] = molecular target: Fuc(a1-2)Gal(b1-4)GlcNAc(b1-3)Gal(b1-4)GlcNAc
Summary of the method: as §1

[30] = molecular target: Fuc(a1-2)Gal(b1-4)GlcNAc(b1-3)Gal(b1-4)GlcNAc(b1-2)Man(a1-3)[Fuc(a1-2)Gal(b1-4)GlcNAc(b1-3)Gal(b1-4)GlcNAc(b1-2)Man(a1-6)]Man(b1-4)GlcNAc(b1-4)GlcNAc
Summary of the method: as §1

B1: GS7807I-bvu-563-22-563 (Bacteroides vulgatus) (protein)
chain: IFSSCTDDFEKLNTSNIQVDPADLPFAAQCTEPMTYCYPPQQNMFQFWTNLTIDLYGGYFMTPNGNFTNGDMGENRGHSGGMYENYYLHIFNNTRRIIAQCDASGERGLSGVMRIVQAYGTLMTTDAYGPIPYSSILSGENEVYFEFDSQKDLYKAMLEDLSTAITDISAMGADEIAKLKSFDCWCNGDKDLWVKIANTMKLRMALRLSKRETEAGNAGMNLKAIATEAAQNTLATVNKDILIDKSLENEMWLMFNWGDCGFNANLVTIMSGTKDPRQPLYMTLNTGDIKNEAGTTTVAANSQYLGIRFASGLPAKPNSWGNFSGWIQGNNGSSYSMPLPIMKAAEAYFLLAEAKLRWDIGSESVKNLYENGIRVSMTNELAYRGAYAGIKEYPEGAVDAYINGTSTQIDYTDPIKAELSTPAVNKLSVKWDESASNEEKLERIITQKWLALFPLSTEGWAEQRRTGYPRFFPAFVNESNGAVNTEEGVRRVIYSSQAYDANAKGVEGGIKLLDEENSSKFGISGDKGGTHLWWDNADKGNF
Q: B1 was tested. Which “glycan array binding signal (z-score)” value [1] did it give?
A: Its value is -0.28.

Q: What about the “glycan array binding signal (z-score)” value [2] of the same binder?
A: The value was -0.032.

Q: And the “glycan array binding signal (z-score)” value [3]?
A: The value was -0.989.

Q: And the “glycan array binding signal (z-score)” value [4]?
A: Its value is -1.01.

Q: What about the “glycan array binding signal (z-score)” value [5] of the same binder?
A: The value was 0.648.

Q: What about the “glycan array binding signal (z-score)” value [6] of the same binder?
A: The value was -0.11.

Q: And the “glycan array binding signal (z-score)” value [7]?
A: The value was -0.036.

Q: What about the “glycan array binding signal (z-score)” value [8] of the same binder?
A: The value was -0.227.

Q: And the “glycan array binding signal (z-score)” value [9]?
A: The value was 4.25.

Q: And the “glycan array binding signal (z-score)” value [10]?
A: The value was -0.345.

Q: What about the “glycan array binding signal (z-score)” value [11] of the same binder?
A: The value was -0.939.

Q: What about the “glycan array binding signal (z-score)” value [12] of the same binder?
A: Its value is -0.347.

Q: And the “glycan array binding signal (z-score)” value [13]?
A: The value was -0.424.

Q: And the “glycan array binding signal (z-score)” value [14]?
A: The value was 0.342.

Q: And the “glycan array binding signal (z-score)” value [15]?
A: Its value is -0.639.

Q: What about the “glycan array binding signal (z-score)” value [16] of the same binder?
A: Its value is -0.73.

Q: And the “glycan array binding signal (z-score)” value [17]?
A: Its value is -0.74.

Q: What about the “glycan array binding signal (z-score)” value [18] of the same binder?
A: The value was 0.119.

Q: And the “glycan array binding signal (z-score)” value [19]?
A: The value was 0.263.

Q: What about the “glycan array binding signal (z-score)” value [20] of the same binder?
A: The value was 1.04.

Q: What about the “glycan array binding signal (z-score)” value [21] of the same binder?
A: Its value is -0.806.

Q: What about the “glycan array binding signal (z-score)” value [22] of the same binder?
A: Its value is 0.585.

Q: What about the “glycan array binding signal (z-score)” value [23] of the same binder?
A: Its value is -0.436.

Q: What about the “glycan array binding signal (z-score)” value [24] of the same binder?
A: The value was -1.46.

Q: And the “glycan array binding signal (z-score)” value [25]?
A: Its value is -1.01.

Q: What about the “glycan array binding signal (z-score)” value [26] of the same binder?
A: The value was 0.94.

Q: What about the “glycan array binding signal (z-score)” value [27] of the same binder?
A: The value was 0.253.

Q: What about the “glycan array binding signal (z-score)” value [28] of the same binder?
A: The value was -0.412.

Q: What about the “glycan array binding signal (z-score)” value [29] of the same binder?
A: The value was -1.09.

Q: What about the “glycan array binding signal (z-score)” value [30] of the same binder?
A: The value was 0.359.
